# Data published in PubChem BioAssay AID330 (DTP/NCI, 2004).
# The list shows only some results of the screen, not a fair sample: it is rich in T/C values a quarter to a half above the control, in often repeated tests (any T/C) and in doses without a T/C. Further doses and runs are listed elsewhere. T/C: endpoint of the treated group in % of that of the vehicle group. Some entries give survivors of the animals treated and no T/C: the source files T/C as zero there, which appears to mark a toxic dose or a test without result, not a measured value. Some survivor counts are full or nearly so, which does not show that the dose was tolerated: survival well below the control is almost never listed, so the zero probably covers shortened survival too. Survivors were counted at the toxicity check, usually on the fifth day, unless a day is given; later deaths do not show. Schedule codes are those of the source, read here as Q, the interval in days (D) or hours (H), X, the number of doses. For survival time, the PubChem record calls one and a half times the control and up active, and a quarter to a half above the control has no call in these data; cut-offs in other NCI protocols can differ. Some entries were tested several times; their values stand side by side, smallest first. Some T/C values carry the count of animals alive at the toxicity check (mostly the fifth day); where none is given, no animal had died by that day.
# System: P388 leukemia ip, CD2F1 mice, survival T/C
# Assay: NCI In Vivo Anticancer Drug Screen. Data for tumor model P388 Leukemia (intraperitoneal) in CD2F1 (CDF1) mice
# Conditions: T/C endpoint: median survival time, higher T/C = longer survival
# [1] = dose: 240.0 mg/kg/injection, schedule: Q01DX005 (ip), vehicle: saline with Tween-80
# [2] = dose: 100.0 mg/kg/injection, schedule: Q01DX009 (ip), vehicle: saline
# [3] = dose: 200.0 mg/kg/injection, schedule: Q01DX009 (ip), vehicle: saline
# [4] = dose: 50.0 mg/kg/injection, schedule: Q01DX009 (ip), vehicle: saline
# [5] = dose: 50.0 mg/kg/injection, schedule: Q01DX005 (ip), vehicle: saline with Tween-80
# [6] = dose: 100.0 mg/kg/injection, schedule: Q01DX005 (ip), vehicle: saline with Tween-80
# [7] = dose: 200.0 mg/kg/injection, schedule: Q04DX003 (ip), vehicle: saline with Tween-80
# [8] = dose: 2.8 mg/kg/injection, schedule: Q01DX005 (ip), vehicle: Klucel (hydroxypropylcellulose) (HPC)
# [9] = dose: 200.0 mg/kg/injection, schedule: Q01DX009 (ip), vehicle: saline with Tween-80
# [10] = dose: 240.0 mg/kg/injection, schedule: Q01DX005 (ip), vehicle: Klucel (hydroxypropylcellulose) (HPC)
# [11] = dose: 240.0 mg/kg/injection, schedule: Q01DX005 (ip), vehicle: saline
compound,measurement,setting,value
CC12C=CC(O1)C1C(=O)OC(=O)C12 (stereo not drawn),survivor count,[1],2 of 6
COc1ccc2c(c1)OC(C)(C)C(c1ccccc1)=C2c1ccc(O)cc1,survivor count,"dose: 60.0 mg/kg/injection, schedule: Q01DX005 (ip), vehicle: saline with Tween-80",6 of 6
same,survivor count,"dose: 120.0 mg/kg/injection, schedule: Q01DX005 (ip), vehicle: saline with Tween-80",6 of 6
same,survivor count,[1],6 of 6
NNC(=O)CCC(=O)NN,survivor count,"dose: 400.0 mg/kg/injection, schedule: Q04DX002 (ip), vehicle: saline",0 of 6
C[n+]1cc(Cl)cc(Br)c1,T/C,"dose: 50.0 mg/kg/injection, schedule: Q01DX005 (ip), vehicle: saline",127 % of control
same,T/C,"dose: 100.0 mg/kg/injection, schedule: Q01DX005 (ip), vehicle: saline",128 % of control
same,survivor count,"dose: 200.0 mg/kg/injection, schedule: Q01DX005 (ip), vehicle: saline",1 of 6
Cc1[nH]c(NC(=O)C(=O)O)c(C#N)c1C,survivor count,"dose: 100.0 mg/kg/injection, schedule: Q01DX009 (ip), vehicle: saline with Tween-80",2 of 6
O=C(O)C1[N-]CCNC1C(=O)O.[O]=[V][OH] (stereo not drawn),survivor count,[2],3 of 6
same,survivor count,[3],0 of 6
CCCCCCCCCC[N+]1([O-])CCCCCC1,survivor count,[4],5 of 6
same,survivor count,[2],1 of 6
same,survivor count,[3],0 of 6
COc1ccc(CNC(=O)C#CCOC2CCCCO2)cc1 (stereo not drawn),survivor count,[5],6 of 6
same,survivor count,[6],6 of 6
O=C(NC(C(=O)O)C1CC(Cl)=NO1)OCC1c2ccccc2-c2ccccc21 (stereo not drawn),T/C,"dose: 50.0 mg/kg/injection, schedule: Q04DX003 (ip), vehicle: other",126 and 138 % of control
same,T/C,"dose: 100.0 mg/kg/injection, schedule: Q04DX003 (ip), vehicle: other",129 % of control
same,T/C,"dose: 200.0 mg/kg/injection, schedule: Q04DX003 (ip), vehicle: other",129 % of control
CC(C)(C(=O)O)C(C)(C)C(=O)O,survivor count,"dose: 6.25 mg/kg/injection, schedule: Q01DX001 (ip), vehicle: saline",3 of 6
O=C(COC1CCCCC1)OC1CCCCC1,survivor count,[7],4 of 6
CCCCCCCCCCC(O)C1CCC(C2CCC(C(O)C(=O)CCCCCCCCCCCC3CC(C)OC3=O)O2)O1 (stereo not drawn),T/C,"dose: 1.4 mg/kg/injection, schedule: Q01DX005 (ip), vehicle: Klucel (hydroxypropylcellulose) (HPC)",147 % of control
same,T/C,[8],140 % of control
same,survivor count,[8],6 of 6
COc1cc2ccnc(C=O)c2cc1OC,survivor count,[9],3 of 6
CN(C)CCOc1cccc2c1C(=O)c1ccccc1C2=O,survivor count,"dose: 200.0 mg/kg/injection, schedule: Q01DX009 (ip), vehicle: water",1 of 6
CCOC(=O)OC(C#N)(c1ccc([N+](=O)[O-])cc1)c1nccc2ccccc12 (stereo not drawn),survivor count,[4],4 of 6
same,survivor count,"dose: 100.0 mg/kg/injection, schedule: Q01DX009 (ip), vehicle: suspension in saline",6 of 6
same,survivor count,"dose: 200.0 mg/kg/injection, schedule: Q01DX009 (ip), vehicle: suspension in saline",6 of 6
Cc1cc2nc3[nH]c4ccccc4c3nc2cc1C,survivor count,"dose: 400.0 mg/kg/injection, schedule: Q01DX009 (ip), vehicle: suspension in saline",5 of 6
CCOc1c(OC)cc(C2c3cc4c(c(OCC)c3CC3COC(=O)C32)OCO4)cc1OC (stereo not drawn),survivor count,"dose: 50.0 mg/kg/injection, schedule: Q01DX005 (ip), vehicle: Klucel (hydroxypropylcellulose) (HPC)",6 of 6
same,survivor count,"dose: 200.0 mg/kg/injection, schedule: Q01DX005 (ip), vehicle: Klucel (hydroxypropylcellulose) (HPC)",6 of 6
Cc1cnc2cc(-c3ccccc3)[nH]c2n1,survivor count,"dose: 60.0 mg/kg/injection, schedule: Q01DX005 (ip), vehicle: Klucel (hydroxypropylcellulose) (HPC)",6 of 6
same,survivor count,"dose: 120.0 mg/kg/injection, schedule: Q01DX005 (ip), vehicle: Klucel (hydroxypropylcellulose) (HPC)",6 of 6
same,survivor count,[10],6 of 6
C(=N\Nc1ccccn1)/c1ccccn1.C(=N\Nc1ccccn1)/c1ccccn1.[Cl-].[Fe+3],survivor count,"dose: 400.0 mg/kg/injection, schedule: Q01DX001 (ip), vehicle: saline with Tween-80",0 of 6
Oc1ccc(CCNCc2ccc3c(c2)OCO3)cc1,survivor count,"dose: 400.0 mg/kg/injection, schedule: Q04DX003 (ip), vehicle: saline with Tween-80",0 of 6
CS(=O)(=O)OCCN(CCOS(C)(=O)=O)c1ccc(C=Nc2ccc3oc(=O)ccc3c2)cc1,survivor count,[9],6 of 6
same,T/C,[7],136 % of control
CC(=O)CC(C)=NCCN=C(C)CC(C)=O.C[CH2][Sn][CH2]C,T/C,"dose: 100.0 mg/kg/injection, schedule: Q04DX003 (ip), vehicle: saline",142 % of control
same,survivor count,"dose: 200.0 mg/kg/injection, schedule: Q04DX003 (ip), vehicle: saline",0 of 6
same,survivor count,"dose: 400.0 mg/kg/injection, schedule: Q04DX003 (ip), vehicle: saline",0 of 6
CNC(=O)C1CCCN1C(=O)C(Cl)Cl (stereo not drawn),survivor count,[4],0 of 6
CN(C)c1ccc(N=NN=c2n(C)c3ccccc3n2C)c(Cl)c1,survivor count,[5],2 of 6
same,survivor count,[6],0 of 6
same,survivor count,"dose: 200.0 mg/kg/injection, schedule: Q01DX005 (ip), vehicle: saline with Tween-80",0 of 6
Cc1ccc(N2C(=O)CCSC2=S)cc1Cl,T/C,"dose: 50.0 mg/kg/injection, schedule: Q01DX009 (ip), vehicle: Klucel (hydroxypropylcellulose) (HPC)",131 % of control
same,T/C,"dose: 200.0 mg/kg/injection, schedule: Q01DX009 (ip), vehicle: Klucel (hydroxypropylcellulose) (HPC)",133 % of control
same,survivor count,"dose: 400.0 mg/kg/injection, schedule: Q01DX009 (ip), vehicle: Klucel (hydroxypropylcellulose) (HPC)",0 of 6
CC1(C)OC2C(COC(=O)c3ccc([N+](=O)[O-])cc3)OC(NC(=O)N(CCCl)N=O)C2O1 (stereo not drawn),T/C,"dose: 0.78 mg/kg/injection, schedule: Q01DX009 (ip), vehicle: saline with Tween-80",131 % of control
same,T/C,"dose: 6.25 mg/kg/injection, schedule: Q01DX009 (ip), vehicle: saline with Tween-80",141 % of control [5 of 6 alive]
same,survivor count,"dose: 400.0 mg/kg/injection, schedule: Q01DX009 (ip), vehicle: saline with Tween-80",5 of 6
C=C(CN(C)C)C(=O)c1ccccc1Cl,survivor count,"dose: 15.0 mg/kg/injection, schedule: Q01DX005 (ip), vehicle: saline",0 of 6
same,survivor count,"dose: 30.0 mg/kg/injection, schedule: Q01DX005 (ip), vehicle: saline",0 of 6
same,survivor count,"dose: 60.0 mg/kg/injection, schedule: Q01DX005 (ip), vehicle: saline",0 of 6
same,survivor count,"dose: 120.0 mg/kg/injection, schedule: Q01DX005 (ip), vehicle: saline",0 of 6
same,survivor count,[11],0 of 6
NC(N)=NN=c1/c(=N\N=C(N)N)c2cc3ccccc3cc2/c1=N/N=C(N)N,survivor count,"dose: 50.0 mg/kg/injection, schedule: Q01DX001 (ip), vehicle: saline",1 of 6
same,survivor count,"dose: 100.0 mg/kg/injection, schedule: Q01DX001 (ip), vehicle: saline",0 of 6
Fc1ccc2nc3ccccc3c(SCCCCCCSc3c4ccccc4nc4ccc(F)cc34)c2c1,survivor count,[10],6 of 6
O=C1C(O)=C(O)C(=O)C(O)=C1O,survivor count,"dose: 400.0 mg/kg/injection, schedule: Q01DX009 (ip), vehicle: saline",5 of 6
C=C1C(=O)OC2CC(C)/C=C\C(=O)C(C)(O)C(O)C(O)C12 (stereo not drawn) (tested in a mixture with another compound),survivor count,"dose: 50.0 mg/kg/injection, schedule: Q01DX001 (ip), vehicle: Klucel (hydroxypropylcellulose) (HPC)",0 of 6
CCN(CC)C(C)(C)C(=O)/C=C/c1ccc(Cl)cc1,survivor count,[11],6 of 6
